# Laboratory results as given in PubChem BioAssay AID624297 (National Center for Advancing Translational Sciences (NCATS), 2012).
# Values joined by “and” are separate entries in the source; they are usually repeats but may differ in a detail not shown here. Identical values can stand only once. The whole screen tested about 340,000 compounds, of which about 6,200 (1.8%) were called active. The shares of active, inactive and inconclusive entries below differ from those in the screen. Calls follow the shape of the dose curve; as a rule, active = well fitted activation curve with a large enough effect; inconclusive = small, poorly fitted or top-dose-only effect; inactive = no such curve, though single readings can be large or run the other way. Potencies of inconclusive entries are doubtful fits and often do not repeat. A structure can be active in one record and inactive in another.
# Test: A quantitative high throughput screen for small molecules that induce DNA re-replication in SW480 colon adenocarcinoma cells. Also: nearly all actives have a fitted effect of over 55% in size.
# Conditions: Hoechst DNA content imaging, 48 h; series mostly up to 46.1 µM
# Summary of the method: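 Image-based DNA-content assay: after two days of treatment, nuclei were labelled with the DNA dye Hoechst and imaged, and hits were compounds raising the count of nuclei showing high fluorescence intensity.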
# Potency is read from the fitted curve at half-maximal effect.
row,SMILES,Potency
1,O=C(Nc1nc(-c2ccccc2)cs1)c1ccc2c(c1)S(=O)(=O)c1ccccc1C2=O,"inconclusive: 0.146 µM [activator, full curve, poor fit]"
2,O=C(c1cccc(F)c1)N1CCN(c2cccc(Cl)c2)CC1,"inconclusive: 18.4 µM [activator, single point]"
3,CCCCc1nc2cc(C(=O)N(C)C(C)c3ccccn3)ccc2o1 (centres undefined),"inconclusive: 0.58 µM [activator, full curve, poor fit]"
4,CC(C)(C)OC(=O)N1CCC2(CC1)Oc1ccc(Cl)cc1C(=O)C21CC(c2ccc(Cl)cc2)=NO1 (centres undefined),"inconclusive: 23.1 µM [activator, partial curve, poor fit]"
5,CC(C)Cn1cnc2c(N)nc3ccccc3c21,inactive and active: 580 nM
6,Cn1nc(C(=O)NC2CCCCC2)c2c1-c1ccccc1S(=O)(=O)C2,"inconclusive: 23.1 µM [activator, single point]"
7,Cc1ccc(S(=O)(=O)NCC(=O)OCC(=O)N(C)C2CCCCC2)cc1,"inconclusive: 29.1 µM [activator, single point]"
8,CCCSc1ccc([C@@H]2[C@@H]3C(=O)N(CC)C(=O)[C@@H]3[C@]3(C(=O)OC)CCCCN23)cc1OC,inactive
9,CC(=O)NC(CC(=O)Nc1nc(-c2ccccc2)c(C(C)=O)s1)c1ccccc1 (centres undefined),"inconclusive: 1.84 µM [activator, partial curve, poor fit]"
10,Cc1ccc(C(c2nnnn2CC2CCCO2)N2CCN(c3cccc(C)c3C)CC2)cc1 (centres undefined),"inconclusive: 32.6 µM [activator, partial curve, poor fit]"
11,CCOC(=O)CN1C(=O)C(O)(CC(=O)c2ccccn2)c2ccccc21 (centres undefined),"inconclusive: 29.1 µM [activator, single point]"
12,O=C(OCCN1C(=O)c2cccc3c(N4CCOCC4)ccc(c23)C1=O)c1ccccc1Cl,"inconclusive: 23.1 µM [activator, single point]"
13,CN(C)c1cc(N/N=C/c2ccc(Cl)cc2)nc(N(C)C)n1,"inconclusive: 29.1 µM [activator, single point]"
14,Cc1ccc(N2C(=O)CCC2=O)c(C)c1,inactive
15,COc1ccc(C(C[N+](=O)[O-])c2c(-c3ccccc3)cc3ccccn23)c(OC)c1 (centres undefined),"inconclusive: 18.4 µM [activator, single point]"
16,Cc1c(C#N)c(N)nc2c3c(sc12)NC(=O)CC3c1ccc(F)cc1 (centres undefined),"inconclusive: 0.184 µM [activator, full curve, poor fit]"
17,Cc1cc2nc(C)c3c(n2n1)CCC3,inactive
18,Cc1cccc(NC(=O)CSc2nc3nc4c(cc3c(=O)n2-c2ccccc2)CCCC4)c1,"inconclusive: 10.3 µM [activator, partial curve, poor fit]"
19,CCOC(=O)CN1C(=O)N[C@@H](CCc2ccccc2)[C@H](C(=O)OC)[C@H]1C,"inconclusive: 1.16 µM [activator, single point]"
20,O=C(C[C@@H]1C/C=C/CC[C@H](Cc2ccc(F)cc2)C(=O)OC[C@@H](Cc2ccccc2)NC1=O)N[C@H](CO)Cc1ccccc1,"inconclusive: 16.4 µM [activator, partial curve]"
21,CN(C)c1nc(NCc2ccccc2)nc(N/N=C/c2cccc(Br)c2)n1,"inconclusive: 29.1 µM [activator, single point]"
22,N#CC1=C(N)C(C#N)(C#N)[C@H](c2c(F)cccc2F)[C@H]2CC3(CC=C12)OCCO3,active: 3.26 µM
23,Clc1ccc(OCCN2CCOCC2)cc1,"inconclusive: 18.4 µM [activator, single point]"

row,SMILES,Potency
1,CCOC(=O)C(C)Oc1cccc2c(=O)n(CC(=O)N3CCc4ccccc43)ccc12 (centres undefined),"inconclusive: 25.9 µM [activator, single point]"
2,COC(=O)c1ccc(NC(=S)NCCc2ccccc2)cc1,inactive
3,CC(C)(C)OC(=O)NCCCCCNC(=O)c1[nH]cnc1C(=O)Nc1cccc(Cl)c1,"inconclusive: 6.51 µM [activator, single point]"
4,Cc1cc(C)c(S(=O)(=O)NCCn2c(C)cc3ccccc32)c(C)c1,"inconclusive: 23.1 µM [activator, partial curve, poor fit]"
5,CCSc1cc(N2CCCC2)nc(-c2ccccc2Cl)n1,inactive
6,CCOc1ccc(NC(=O)CCC(=O)NNC(=O)Nc2cccc(Cl)c2)cc1,"inconclusive: 0.0146 µM [activator, full curve, poor fit]"
7,COc1cccc(C(=O)N/N=C(\C)c2ccc(NC(=O)Cc3ccccc3)cc2)c1OC,"inconclusive: 20.6 µM [activator, single point]"
8,CCCN(CC1CC1)C(=S)NC(=O)c1cc(Br)ccc1Cl,"inconclusive: 29.1 µM [activator, single point]"
9,O=C(NCCc1ccccc1)c1ccc(-c2ccccc2C(F)(F)F)o1,inactive
10,Cc1ccccc1CS(=O)(=O)Cc1ccc(C(=O)NC2CCCC2)o1,"inconclusive: 6.51 µM [activator, full curve, poor fit]"
11,CCC1CCCCN1CCCNC(=O)C(C)n1nc(C)c2sc3ccccc3c2c1=O (centres undefined),"inconclusive: 4.61 µM [activator, full curve, poor fit]"
12,Cc1nnc(N/N=C/c2ccccc2O)n1N,"inconclusive: 29.1 µM [activator, single point]"
13,Cc1cc2cc(CNC(=S)NC3CCCCC3)ccc2n1C,"inconclusive: 1.16 µM [activator, single point]"
14,CCCc1nnc(NC(=O)Cn2c(=O)oc3cc(Br)ccc32)s1,"inconclusive: 6.51 µM [activator, full curve, poor fit]"
15,COc1cccc(-c2cc(=O)c3cc(NC(C)=O)ccc3[nH]2)c1,active: 16.4 µM
16,O=C(CCc1ccccc1)N1CCN(Cc2ccc(F)cc2Cl)CC1,"inconclusive: 0.291 µM [activator, partial curve, poor fit]"
17,COCC(=O)Nc1c(I)c(C(=O)NC[C@@H](O)CO)c(I)c(C(=O)N(C)C[C@@H](O)CO)c1I,inactive
18,COc1ccccc1C(=O)NNC(=O)c1ccccc1,"inconclusive: 29.1 µM [activator, single point]"
19,Cc1cccc(NC(=O)Cc2nc(-c3c[nH]c(C(=O)N4CCCC4)c3)cs2)c1,inactive
20,NC(=O)c1c(NC(=O)CN2CCCC2)sc2c1CCCC2,"inconclusive: 23.1 µM [activator, single point]"
21,COc1ccc(C2=Nn3c(nnc3-c3ccccc3Cl)SC2)cc1OCC1CC1,active: 16.4 µM
22,CC(C)Cc1nc(SCC(=O)N2CCCC2)c2c(=O)n(C)c(=O)n(C)c2n1,"inconclusive: 0.58 µM [activator, full curve, poor fit]"
23,COc1ccc2c(c1C)CCC(C)(C#N)C2=O (centres undefined),inactive

row,SMILES,Potency
1,c1ccc(NC(c2ccccc2)c2ccncc2)cc1 (centres undefined),inactive
2,O=C1c2cccc3c([N+](=O)[O-])ccc(c23)C(=O)N1O,"inconclusive: 9.2 µM [activator, partial curve]"
3,COC(=O)c1cc(S(=O)(=O)N2CCCCCC2)c[nH]1,inactive
4,COc1ccc(CNCCCn2cnc(C(=O)Nc3ccc(C)c(C)c3)n2)cc1,inactive
5,O=C(CN1C(=O)c2cccc3cccc1c23)Nc1ccc2c(c1)OCO2,"inconclusive: 29.1 µM [activator, single point]"
6,C=C(C)C(=O)N1CC2(CC(c3cccc(NC(=O)/C(C)=C\C)c3)=NO2)C[C@H]1C(N)=O (some centres undefined),inactive
7,Cc1onc(-c2ccccc2)c1C(=O)OCCOc1ccccc1F,inactive
8,Cn1sc(=O)c2cc(S(=O)(=O)NC3CC3)ccc21,"inconclusive: 29.1 µM [activator, single point]"
9,CCN(CC)c1ccc(/C=N/NC(=O)c2ccccn2)cc1,"inconclusive: 29.1 µM [activator, single point]"
10,O=C(Oc1ccccc1C(=S)N1CCOCC1)c1cccc([N+](=O)[O-])c1,inactive
11,CCOCCN1CCN(C2c3ccccc3CSc3ccccc32)CC1 (centres undefined),inactive
12,Cc1ccccc1C(=O)Nc1c2c(nc3ccccc13)CCCC2,inactive
13,C/C(=N\NC(=O)c1cccc2ccccc12)c1cccnc1,inactive
14,O=C(c1cccc(S(=O)(=O)NCc2ccccc2)c1)N1CCN(c2ccccc2)CC1,"inconclusive: 29.1 µM [activator, single point]"
15,COc1ccc(OC)c(CNC(=O)C2CCN(S(=O)(=O)N3CCCC3)CC2)c1,"inconclusive: 29.1 µM [activator, single point]"
16,Nc1ccc2c(c1)C/C(=C/c1ccco1)C2=O,"inconclusive: 25.9 µM [activator, single point]"
17,CC(=O)c1ccccc1NC(=O)COC(=O)C1=NN(c2ccccc2)C(=O)CC1,inactive
18,Cc1ccc(CN2CCN(/N=C/C(Br)=C\c3ccccc3)CC2)cc1,"inconclusive: 29.1 µM [activator, single point]"
19,COc1cc(/C=N/n2c(COc3ccccc3)n[nH]c2=S)cc(Br)c1O,inactive
20,CCN(CC)c1ccc(/C=N/N=C(c2ccccc2)c2ccccc2)c(O)c1,active: 23.1 µM
21,CC(=O)c1cc(NC(=O)c2cccc(C(F)(F)F)c2)c(=O)oc1C,"inconclusive: 3.66 µM [activator, full curve, poor fit]"
22,O=C(CN1CCN(S(=O)(=O)c2ccccc2)CC1)NCCc1ccccc1,"inconclusive: 20.6 µM [activator, single point]"
23,c1ccc(-c2n[nH]c(-c3ccccn3)n2)nc1,inactive
